For this test, the target named is T1, β-dystroglycan (endogenous, C2C12) (mouse (endogenous in C2C12)) (UniProt Q62165).
T1 sequence: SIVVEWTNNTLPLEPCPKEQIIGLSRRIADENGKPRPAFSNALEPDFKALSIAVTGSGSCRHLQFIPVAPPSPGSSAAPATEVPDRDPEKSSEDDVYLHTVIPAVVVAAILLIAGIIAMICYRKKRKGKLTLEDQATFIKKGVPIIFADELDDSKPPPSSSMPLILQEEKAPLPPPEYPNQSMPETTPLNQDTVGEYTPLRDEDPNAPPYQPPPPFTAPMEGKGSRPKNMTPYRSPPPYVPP
Description: co-IP; C2C12 lysates (500 ug protein) precipitated with anti-β-DG antibody (Mandag) and protein G-agarose, overnight at 4 °C; lysis buffer 50 mM Tris-HCl pH 8, 150 mM NaCl, 1% Triton X-100; western blot for β-DG, UBF, B23, fibrillarin; nonspecific IgG in parallel.

Results are given in words; binding and its absence hold for the method and conditions named. In cells and extracts the contact can be indirect.

B1: fibrillarin (protein, UniProt P35550 1-327)
chain: MKPGFSPRGGGFGGRGGFGDRGGRGGGRGGRGGFGGGRGGFGGGGRGRGGGGGGFRGRGGGGGRGGGFQSGGNRGRGGGRGGKRGNQSGKNVMVEPHRHEGVFICRGKEDALVTKNLVPGESVYGEKRVSISEGDDKIEYRAWNPFRSKLAAAILGGVDQIHIKPGAKVLYLGAASGTTVSHVSDIVGPDGLVYAVEFSHRSGRDLINLAKKRTNIIPVIEDARHPHKYRMLIAMVDVIFADVAQPDQTRIVALNAHTFLRNGGHFVISIKANCIDSTASAEAVFASEVKKMQQENMKPQEQLTLEPYERDHAVVVGVYRPPPKVKN
Turning to B1, the binding result is given as “no binding”.

Values taken from publication PMC6393529.
